According to the supplement of paper PMC8728848:
Some of the results follow.

How the values were obtained:
Assay in all cases: glycan array binding signal (z-score within array); higher = stronger binding
Settings in all cases: glycan notation: IUPAC condensed, linker removed
[1] = biological target: Gal(b1-3)GlcNAc(b1-2)Man(a1-3)[Gal(b1-3)GlcNAc(b1-2)Man(a1-6)]Man(b1-4)GlcNAc(b1-4)GlcNAc
Method in brief: (§1)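 Glycan array data came from 3228 arrays in the Consortium for Functional Glycomics database, and only arrays with an available protein sequence were kept. Glycan names were put into IUPAC-condensed notation, and columns mapping to the same glycan were averaged. The binding signal is a within-array Z-score, averaged across arrays of one protein sequence run at different concentrations or buffers and across linkers. A negative Z-score can be read as non-binding.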

[2] = biological target: Gal(b1-3)GlcNAc(b1-2)Man(a1-3)[Gal(b1-3)GlcNAc(b1-2)Man(a1-6)]Man(b1-4)GlcNAc(b1-4)[Fuc(a1-6)]GlcNAc
Method in brief: as §1

[3] = biological target: Gal(b1-3)GlcNAc(b1-2)Man(a1-3)[GlcNAc(b1-4)][Gal(b1-3)GlcNAc(b1-2)Man(a1-6)]Man(b1-4)GlcNAc(b1-4)GlcNAc
Method in brief: as §1

[4] = biological target: Gal(b1-3)GlcNAc(b1-2)[Gal(b1-3)GlcNAc(b1-6)]Man(a1-6)[Gal(b1-3)GlcNAc(b1-2)Man(a1-3)]Man(b1-4)GlcNAc(b1-4)GlcNAc
Method in brief: as §1

[5] = biological target: Gal(b1-3)GlcNAc(b1-3)Gal(b1-3)GlcNAc
Method in brief: as §1

[6] = biological target: Gal(b1-3)GlcNAc(b1-3)Gal(b1-4)Glc
Method in brief: as §1

[7] = biological target: Gal(b1-3)GlcNAc(b1-3)Gal(b1-4)GlcNAc
Method in brief: as §1

[8] = biological target: Gal(b1-3)GlcNAc(b1-3)Gal(b1-4)GlcNAc(b1-2)Man(a1-3)[Gal(b1-3)GlcNAc(b1-3)Gal(b1-4)GlcNAc(b1-2)Man(a1-6)]Man(b1-4)GlcNAc(b1-4)GlcNAc
Method in brief: as §1

[9] = biological target: Gal(b1-3)GlcNAc(b1-3)Gal(b1-4)GlcNAc(b1-2)[Gal(b1-3)GlcNAc(b1-3)Gal(b1-4)GlcNAc(b1-6)]Man(a1-6)[Gal(b1-3)GlcNAc(b1-3)Gal(b1-4)GlcNAc(b1-2)Man(a1-3)]Man(b1-4)GlcNAc(b1-4)[Fuc(a1-6)]GlcNAc
Method in brief: as §1

[10] = biological target: Gal(b1-3)GlcNAc(b1-3)Gal(b1-4)GlcNAc(b1-3)Gal(b1-4)GlcNAc(b1-2)[Gal(b1-3)GlcNAc(b1-3)Gal(b1-4)GlcNAc(b1-3)Gal(b1-4)GlcNAc(b1-6)]Man(a1-6)[Gal(b1-3)GlcNAc(b1-3)Gal(b1-4)GlcNAc(b1-3)Gal(b1-4)GlcNAc(b1-2)Man(a1-3)]Man(b1-4)GlcNAc(b1-4)[Fuc(a1-6)]GlcNAc
Method in brief: as §1

[11] = biological target: Gal(b1-3)GlcNAc(b1-3)Gal(b1-4)GlcNAc(b1-6)[Gal(b1-3)GlcNAc(b1-3)]Gal(b1-4)Glc
Method in brief: as §1

[12] = biological target: Gal(b1-3)GlcNAc(b1-3)Gal(b1-4)[Fuc(a1-3)]GlcNAc
Method in brief: as §1

[13] = biological target: Gal(b1-3)GlcNAc(b1-3)Gal(b1-4)[Fuc(a1-3)]GlcNAc(b1-6)[Gal(b1-3)GlcNAc(b1-3)]Gal(b1-4)Glc
Method in brief: as §1

[14] = biological target: Gal(b1-3)GlcNAc(b1-3)GalNAc
Method in brief: as §1

[15] = biological target: Gal(b1-3)GlcNAc(b1-6)Gal(b1-4)GlcNAc
Method in brief: as §1

[16] = biological target: Gal(b1-3)GlcNAc(b1-6)GalNAc
Method in brief: as §1

[17] = biological target: Gal(b1-3)GlcNAc(b1-6)[Gal(b1-3)]GalNAc
Method in brief: as §1

Gal(b1-3)GlcNAc6S = biological target: Gal(b1-3)GlcNAc6S
Method in brief: as §1

[18] = biological target: Gal(b1-3)[Fuc(a1-4)]GlcNAc
Method in brief: as §1

[19] = biological target: Gal(b1-3)[Fuc(a1-4)]GlcNAc(b1-2)Man
Method in brief: as §1

[20] = biological target: Gal(b1-3)[Fuc(a1-4)]GlcNAc(b1-2)Man(a1-3)[Gal(b1-3)[Fuc(a1-4)]GlcNAc(b1-2)Man(a1-6)]Man(b1-4)GlcNAc(b1-4)[Fuc(a1-6)]GlcNAc
Method in brief: as §1

[21] = biological target: Gal(b1-3)[Fuc(a1-4)]GlcNAc(b1-3)Gal(b1-3)[Fuc(a1-4)]GlcNAc
Method in brief: as §1

[22] = biological target: Gal(b1-3)[Fuc(a1-4)]GlcNAc(b1-3)Gal(b1-4)[Fuc(a1-3)]GlcNAc
Method in brief: as §1

[23] = biological target: Gal(b1-3)[Fuc(a1-4)]GlcNAc(b1-6)GalNAc
Method in brief: as §1

[24] = biological target: Gal(b1-3)[GlcNAc(b1-6)]GalNAc
Method in brief: as §1

[25] = biological target: Gal(b1-3)[Neu5Ac(a2-6)]GalNAc
Method in brief: as §1

[26] = biological target: Gal(b1-3)[Neu5Ac(a2-6)]GlcNAc(b1-4)Gal(b1-4)Glc
Method in brief: as §1

[27] = biological target: Gal(b1-3)[Neu5Ac(b2-6)]GalNAc
Method in brief: as §1

Gal(b1-4)Gal = biological target: Gal(b1-4)Gal
Method in brief: as §1

[28] = biological target: Gal(b1-4)GalNAc(a1-3)[Fuc(a1-2)]Gal(b1-4)GlcNAc
Method in brief: as §1

[29] = biological target: Gal(b1-4)GalNAc(b1-3)[Fuc(a1-2)]Gal(b1-4)GlcNAc
Method in brief: as §1

Gal(b1-4)Glc = biological target: Gal(b1-4)Glc
Method in brief: as §1

Gal(b1-4)Glc6S = biological target: Gal(b1-4)Glc6S
Method in brief: as §1

Gal(b1-4)GlcNAc = biological target: Gal(b1-4)GlcNAc
Method in brief: as §1

[30] = biological target: Gal(b1-4)GlcNAc(a1-6)Gal(b1-4)GlcNAc
Method in brief: as §1

Gal(b1-4)GlcNAc(b1-2)Man = biological target: Gal(b1-4)GlcNAc(b1-2)Man
Method in brief: as §1

[31] = biological target: Gal(b1-4)GlcNAc(b1-2)Man(a1-3)Man(b1-4)GlcNAc(b1-4)GlcNAc
Method in brief: as §1

[32] = biological target: Gal(b1-4)GlcNAc(b1-2)Man(a1-3)[Gal(b1-4)GlcNAc(b1-2)Man(a1-6)]Man(b1-4)GlcNAc(b1-4)GlcNAc
Method in brief: as §1

[33] = biological target: Gal(b1-4)GlcNAc(b1-2)Man(a1-3)[Gal(b1-4)GlcNAc(b1-2)Man(a1-6)]Man(b1-4)GlcNAc(b1-4)[Fuc(a1-6)]GlcNAc
Method in brief: as §1

[34] = biological target: Gal(b1-4)GlcNAc(b1-2)Man(a1-3)[Gal(b1-4)GlcNAc(b1-2)Man(a1-6)][Gal(b1-4)GlcNAc(b1-4)]Man(b1-4)GlcNAc(b1-4)[Fuc(a1-6)]GlcNAc
Method in brief: as §1

[35] = biological target: Gal(b1-4)GlcNAc(b1-2)Man(a1-3)[Gal(b1-4)GlcNAc(b1-2)Man(a1-6)][GlcNAc(b1-4)]Man(b1-4)GlcNAc(b1-4)[Fuc(a1-6)]GlcNAc
Method in brief: as §1

[36] = biological target: Gal(b1-4)GlcNAc(b1-2)Man(a1-3)[GlcNAc(b1-2)Man(a1-6)]Man(b1-4)GlcNAc(b1-4)GlcNAc
Method in brief: as §1

[37] = biological target: Gal(b1-4)GlcNAc(b1-2)Man(a1-3)[GlcNAc(b1-4)][Gal(b1-4)GlcNAc(b1-2)Man(a1-6)]Man(b1-4)GlcNAc(b1-4)GlcNAc
Method in brief: as §1

[38] = biological target: Gal(b1-4)GlcNAc(b1-2)Man(a1-3)[Man(a1-6)]Man(b1-4)GlcNAc(b1-4)GlcNAc
Method in brief: as §1

[39] = biological target: Gal(b1-4)GlcNAc(b1-2)Man(a1-6)Man(b1-4)GlcNAc(b1-4)GlcNAc
Method in brief: as §1

B1: DCIR1 (Mus musculus), Q9QZ15 (protein)
chain: MASEITYAEVKFKNESNSLHTYSESPAAPREKPIRDLRKPGSPSLLLTSLMLLLLLLAITFLVAFIIYFQKYSQLLEEKKAAKNIMHNELNCTKSVSPMEDKVWSCCPKDWRLFGSHCYLVPTVSSSASWNKSEENCSRMGAHLVVIQSQEEQDFITGILDTHAAYFIGLWDTGHRQWQWVDQTPYEESITFWHNGEPSSGNEKCATIIYRWKTGWGWNDISCSLKQKSVCQMKKINL
- glycan array binding signal (z-score) [1]: -0.338
- glycan array binding signal (z-score) [2]: -0.797
- glycan array binding signal (z-score) [3]: 0.064
- glycan array binding signal (z-score) [4]: -0.321
- glycan array binding signal (z-score) [5]: -0.535
- glycan array binding signal (z-score) [6]: -0.532
- glycan array binding signal (z-score) [7]: 0.016
- glycan array binding signal (z-score) [8]: 0.377
- glycan array binding signal (z-score) [9]: -0.063
- glycan array binding signal (z-score) [10]: 2.45
- glycan array binding signal (z-score) [11]: 0.051
- glycan array binding signal (z-score) [12]: -0.671
- glycan array binding signal (z-score) [13]: -0.632
- glycan array binding signal (z-score) [14]: -0.841
- glycan array binding signal (z-score) [15]: 0.002
- glycan array binding signal (z-score) [16]: -0.327
- glycan array binding signal (z-score) [17]: 1.56
- glycan array binding signal (z-score) (Gal(b1-3)GlcNAc6S): -0.285
- glycan array binding signal (z-score) [18]: -0.069
- glycan array binding signal (z-score) [19]: 0.967
- glycan array binding signal (z-score) [20]: 1.47
- glycan array binding signal (z-score) [21]: -0.789
- glycan array binding signal (z-score) [22]: -0.398
- glycan array binding signal (z-score) [23]: -0.284
- glycan array binding signal (z-score) [24]: -0.805
- glycan array binding signal (z-score) [25]: -0.767
- glycan array binding signal (z-score) [26]: 3.38
- glycan array binding signal (z-score) [27]: -0.696
- glycan array binding signal (z-score) (Gal(b1-4)Gal): -0.246
- glycan array binding signal (z-score) [28]: -0.718
- glycan array binding signal (z-score) [29]: -0.625
- glycan array binding signal (z-score) (Gal(b1-4)Glc): -0.029
- glycan array binding signal (z-score) (Gal(b1-4)Glc6S): 1.36
- glycan array binding signal (z-score) (Gal(b1-4)GlcNAc): -0.206
- glycan array binding signal (z-score) [30]: -0.525
- glycan array binding signal (z-score) (Gal(b1-4)GlcNAc(b1-2)Man): 0.987
- glycan array binding signal (z-score) [31]: -0.673
- glycan array binding signal (z-score) [32]: -0.217
- glycan array binding signal (z-score) [33]: -0.636
- glycan array binding signal (z-score) [34]: -0.267
- glycan array binding signal (z-score) [35]: -0.61
- glycan array binding signal (z-score) [36]: 0.278
- glycan array binding signal (z-score) [37]: -0.363
- glycan array binding signal (z-score) [38]: 0.951
- glycan array binding signal (z-score) [39]: -0.064
